Measured values: PMC12518634, “The noncanonical function of liver-type phosphofructokinase potentiates the efficacy of HDAC inhibitors in cancer” (Signal Transduction and Targeted Therapy, 2025)
pEC50: −log10 of the molar value.

Key:
783C-6 = assay: High-throughput drug screen, CellTiter-Glo viability, 72 h; format: cell-based, human
Protocol: (§1) The cells were seeded and incubated with a gradient of concentrations of drugs for 72 h, after which the cell viability was assessed (Supplementary Fig. 1a). The drug library primarily comprises epigenetic drugs, including HDAC inhibitors, DNA methyltransferase inhibitors, and histone demethylase inhibitors, as well as conventional chemotherapies and kinase inhibitors (Supplementary Fig. 1b and Supplementary Table 1). […] To identify novel therapeutics against CCA, we conducted a high-throughput screen employing PerkinElmer’s integrated robotic Explorer G3 workstations. […] Following dilution to five specified concentrations, drugs were dispensed into 96-well plates in the sequence detailed in Supplementary Fig. 1a. […] We then quantified cell viability via the CellTiter-Glo luminescent assay according to the manufacturer’s protocol. Signal detection was carried out on a Synergy2 plate reader operated by Gen5 software (BioTek). For data processing, the raw luminescence data were processed through the Breeze pipeline for curve fitting, yielding quality control metrics (e.g., Z-factors) and drug response parameters (AUC and DSS), as adapted from previous work.[54] Drug responses were evaluated on the basis of the drug sensitivity score (DSS), and a cutoff of ≥10 was used to define efficacy. […]

1405R3 = assay: as above; format: cell-based; settings: Homo sapiens, 1405R3 DSRT analysis, fitted dose-response curve, Min.Conc.tested 1, Max.Conc.tested 10000, GI50
Protocol: as §1

| Compound | pEC50 (783C-6; 783C-6 cells, DSRT analysis, CellTiter-Glo viability, concentrations tested 1 to 10000 (unit inferred), GI50) | pEC50 (783C-6; Homo sapiens) | pEC50 (1405R3) |
| --- | --- | --- | --- |
| COc1cc2nc(N3CCCC3)nc(NCCCCCN3CCCC3)c2cc1OC [UNC0379] | 5.67 | – | – |
| O=C(CCCCCCC(=O)Nc1ccccc1)NO [vorinostat, reference compound] | – | 6.06 | 5.92 |
